In patent publication US11787772B2, “Carboxylic diarythiazepineamines as mixed mu- and delta-opioid receptor agonists” (THE TRUSTEES OF COLUMBIA UNIVERSITY IN THE CITY OF NEW YORK, priority 2017, dated 2023) one finds solubility data, which are given here for one molecule.

A short description of this series: physchem. To be noted: 25 °C, thermodynamic from solid. The procedure:
Test compounds (4 mg) were added to 200 μL of one of the tested aqueous solutions (hereinafter—buffer): 100 mM aqueous HCl (pH 1) or 100 mM Na-phosphate buffer (pH 7). The obtained suspensions/solutions with the theoretical concentration of 20 mg/mL were further allowed to equilibrate at 25° C. on a thermostatic orbital shaker for 24 hours and then centrifuged at 6000 rpm for 4 minutes and filtered through HTS filter plates using a vacuum manifold. In parallel, compound dilutions in 50% acetonitrile/HCl and 30% acetonitrile/Na-phosphate buffer mixes were prepared to theoretical concentrations of 0 mg/mL (blank), 0.1 mg/mL, 0.2 mg/mL, and 0.4 mg/mL in duplicates to generate calibration curves falling within the optimum UV absorption range. The filtrates of test compounds were diluted 100-fold with acetonitrile-buffer mixtures before measuring. The filtered supernatant test samples were transferred to 96-well plates and measured for absorbance in the 200-550 nm range with 5 nm step increment. The concentrations of compounds in supernatants were calculated using the measured absorbance and the previously determined calibration curve. Proper absorbance wavelengths for calculations were selected for each compound manually based on absorbance maxima (absolute absorbance unit values for the minimum and maximum concentration points within 0-2.5 OD range).

Structures are written as SMILES.

A word on the solubility: it is the dissolved amount per volume that the medium holds. Read a high solubility as much dissolved substance. For `CN1c2ccccc2C(NCCCCCCC(=O)O)c2ccc(Cl)cc2S1(=O)=O.Cl` (centres unmarked) [tianeptine (HCl salt), tianeptine, reference compound], the solubility reads like this: (pH 1, simulated gastric fluid) 680 µg/mL; (pH 7, aqueous buffer) 260 µg/mL.
